Results taken from publication PMC6600469, “Synthesis and Biological Evaluation of NH2-Sulfonyl Oseltamivir Analogues as Influenza Neuraminidase Inhibitors” (Molecules, 2019).

Test: Metabolic stability in human liver microsomes in vitro
Conditions: human liver microsomes 0.5 mg/mL, 37 °C, 60 min incubation

Structure (SMILES): CCCNCC(O)COc1ccccc1C(=O)CCc1ccccc1 (stereo not shown) [Propafenone, propafenone]
- Remaining (T = 60 min): 0.1%
